# No constants are given. Whether binding was seen depends on the method and setting. Binding seen in cells or lysates may run through a third protein. Some results given as binding are weak or reduced against the parent protein; the word gives no strength.
# The chains behind the UniProt entries cited, without tags or fusion partners.
# UniProt P15531: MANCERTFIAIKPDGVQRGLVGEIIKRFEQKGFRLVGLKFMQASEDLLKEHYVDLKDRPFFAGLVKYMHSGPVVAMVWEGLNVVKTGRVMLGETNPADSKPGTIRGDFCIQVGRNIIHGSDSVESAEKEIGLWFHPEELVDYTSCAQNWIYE
# Molecular target: NME1 (nucleoside diphosphate kinase A), endogenous in U937 cells (human (endogenous in U937)) (UniProt P15531)
# Assay: co-IP; U937 cells lysed under non-denaturing conditions; 500 ug total lysate protein, IP with anti-NME1, immunoblot for ST8SIA1 and NME1; beads only (IgG) as control
binder,measurement,value
"ST8SIA1 (ST8 alpha-N-acetyl-neuraminide alpha-2,8-sialyltransferase 1), endogenous in U937 cells (protein, UniProt Q92185 1-356) MSPCGRARRQTSRGAMAVLAWKFPRTRLPMGASALCVVVLCWLYIFPVYRLPNEKEIVQGVLQQGTAWRRNQTAARAFRKQMEDCCDPAHLFAMTKMNSPMGKSMWYDGEFLYSFTIDNSTYSLFPQATPFQLPLKKCAVVGNGGILKKSGCGRQIDEANFVMRCNLPPLSSEYTKDVGSKSQLVTANPSIIRQRFQNLLWSRKTFVDNMKIYNHSYIYMPAFSMKTGTEPSLRVYYTLSDVGANQTVLFANPNFLRSIGKFWKSRGIHAKRLSTGLFLVSAALGLCEEVAIYGFWPFSVNMHEQPISHHYYDNVLPFSGFHAMPEEFLQLWYLHKIGALRMQLDPCEDTSLQPTS",binding,binds

# Reference: paper PMC8619003
